In PubChem BioAssay AID2685 (National Center for Advancing Translational Sciences (NCATS), 2010):
Screen size: about 320,000 compounds; about 2,100 (0.66%) were called active. Inconclusive means that the source gave no clear call. Such entries were picked first, then a sample of the others. Calls come from the whole dose curve; as a rule, active = well fitted inhibition curve with a large enough effect in the signal ratio, with a control signal flat (not every such curve was filed as active); inconclusive = small, poorly fitted or top-dose-only effect, or effect the other way, or a change in a side signal; inactive = flat fitted curve, though single readings scatter; the % refers to the signal ratio. Potencies of inconclusive entries are doubtful fits and often do not repeat.

Assay: qHTS Assay for Lipid Storage Modulators in Drosophila S3 Cells
Conditions: BODIPY lipid droplet fluorescence, 18-24 h, cells fed with added oleic acid; lipid storage change, negative = inhibition: at 46.1 µM (top of the series) unless noted
Method in brief: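 Drosophila S3 cells loaded with oleic acid (400 uM, as added) and compounds at several concentrations; lipid droplets imaged by 488-nm laser-scanning cytometry, 500–530 nm intensity and object ratio to cell channel. Percent activity normalized to 20 uM Triacsin C.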
% is set by controls: 0 for no effect and ±100 for the full control effect; potency is the fitted concentration of half-maximal effect.

Potency, inconclusive:
Cc1cc(-c2ccccc2)nc2[n+]1CCN2C 2.31 µM [falling, partial curve]
Cc1ccc(S(=O)(=O)N2CCCCC2CCNC(=O)C(=O)Nc2ccccc2F)cc1 (centres undefined) 16.4 µM [falling, single point]
Nc1ccc(CCS(N)(=O)=O)cc1 2.06 µM [falling, partial curve]
COc1ccc(CC(=O)OCC(=O)Nc2ccc3c(c2)OCO3)cc1 2.31 µM [falling, single point]
Cc1[nH]n(-c2ccccc2)c(=O)c1C(c1ccccc1C(=O)O)c1c(C)[nH]n(-c2ccccc2)c1=O 0.092 µM [falling, full curve, poor fit]
O=C(NC1=NCCS1)c1ccc(Br)s1 29.1 µM [activator, single point]
COc1ccc(C(=O)CCC(=O)NCc2cc(OC)cc(OC)c2)cc1 5.17 µM [falling, single point]
CCCN1CCN(CCCNC(=O)Cn2nc(C)n3c(cc4cc(OC)ccc43)c2=O)CC1 32.6 µM [falling, single point]
COc1cccc(CCNC(=O)COc2cccc3c2OC(C)(C)C3)c1 29.1 µM [falling, single point]
COc1cccc(-n2cnnc2SC(C)C(=O)NC2CCCC2)c1 (centres undefined) 0.58 µM [falling, single point]
CCC(C)NS(=O)(=O)c1ccc(S(=O)(=O)N(CCc2ccc(OC)c(OC)c2)Cc2cccs2)cc1 (centres undefined) 29.1 µM [falling, single point]
Cc1cc(OCC(=O)NCCN2CCOCC2)cc(C)c1Cl 29.1 µM [activator, partial curve]
O=S(=O)(c1ccc(Cl)cc1)c1nc(-c2ccco2)oc1N1CCCCC1 32.6 µM [falling, single point]
Cc1cnc(C(=O)OCC(=O)N(C)CC(=O)Nc2ccccc2Cl)cn1 29.1 µM [activator, single point]
O=C(Nc1ccc(S(=O)(=O)NCC2CCCO2)cc1)c1ccc(Cl)cc1[N+](=O)[O-] (centres undefined) 4.61 µM [falling, single point]
C=C(C)CSc1nc2nc(C)cc(C)n2n1 9.2 µM [activator, partial curve]
Oc1ccc(-c2nc3ncccn3c2Nc2ccc3c(c2)OCO3)cc1 9.2 µM [activator, partial curve]
O=C(N/N=C/c1ccccn1)c1cccs1 6.51 µM [falling, single point]
O=C(/C=C/c1ccc(O)c(O)c1)c1ccc(S(=O)(=O)N2CCCCCC2)cc1 7.31 µM [falling, partial curve, poor fit]
Cc1oc2cc3oc(=O)c(CC(=O)NCC(=O)N[C@@H](C(=O)O)c4ccccc4)c(C)c3cc2c1C 2.06 µM [falling, partial curve]
CCCc1nc2c(=O)n(C)c(=O)nc-2n(C)n1 0.0731 µM [falling, full curve, poor fit]
CC(C)CNC(=O)C(=O)NCC(c1ccc2c(c1)OCO2)N1CCOCC1 (centres undefined) 29.1 µM [activator, single point]
Cc1nc(C)c(C(=O)Nc2cccc(C)c2C)o1 5.17 µM [activator, partial curve]
S=c1nc(-c2ccccc2Cl)[nH][nH]1 0.82 µM [falling, full curve, poor fit]

Potency, active:
CC(C)(C)c1ccc(C(=O)CCC(=O)NCc2ccccc2)cc1 14.6 µM
CC(=O)NCCc1ccc(S(=O)(=O)N2CCOCC2)cc1 18.4 µM
Cc1ccccc1NC(=O)C(C)Sc1nnc(-c2ccncc2)n1CC1CCCO1 (centres undefined) 2.31 µM

Lipid storage change, negative = inhibition, inconclusive:
O=C(CCCSc1nc2ccccc2[nH]1)NCc1ccccc1Cl -47.8%
COc1ccc(NC(=O)CC2SC(N3CCCCC3)=NC2=O)cc1OC (centres undefined) 11.2%
CCCCN(C(=O)Cc1coc2cc(C)c(C)cc12)c1c(N)n(Cc2ccccc2)c(=O)[nH]c1=O -13.4%
CCOCCCN(C(=O)c1ccco1)C(C(=O)NC1CCCC1)c1cccc(OC)c1OC (centres undefined) 5.16%
Cc1sc2ncnc(N3CCC(C(=O)Nc4ccccc4C(C)(C)C)CC3)c2c1C
S=C(NCCc1c[nH]c2ccccc12)NC1CCCC1 14% [at 9.22 µM]
Cc1ccc(NC2=NCCCCC2)cc1 -30.1%
CC(C)CC(N=Cc1c(O)c2ccccc2oc1=O)C(=O)O (centres undefined) 1.44%
COc1ccc(NC(=O)CN(C)S(=O)(=O)c2ccc(Cl)cc2)cc1Cl -8.21%
Cc1ccccc1C(=O)NNS(=O)(=O)c1cccc([N+](=O)[O-])c1 -54.9%
CCCCc1nnc(NC(=O)c2ccc3c(=O)n4c(nc3c2)CCC4)s1
COC(=O)C1=C(C)NC(C)=C(C(=O)OC)C1C(=O)OC(C)C(=O)c1ccccc1 (centres undefined) 8.92%
O=[N+]([O-])c1ccc(Cl)c(/C=N/n2c(C3CCCCC3)n[nH]c2=S)c1 96% [activator] [at 0.0737 µM]
CCOc1ccc(OCC)c(S(=O)(=O)NCc2ccc3c(c2)OCO3)c1 6.3%
COc1cccc(/C=C2\SC(=S)N(CCC(=O)Nc3ccc(O)cc3)C2=O)c1 -20.9%
COc1cccc(NC(=O)CSCc2n[nH]c(=O)[nH]2)c1 -6.89%
CCC1COC(c2cccn2Cc2ccccc2Cl)=N1 (centres undefined) -16.3% [at 9.22 µM]
Cn1c(=O)oc2cc(S(=O)(=O)N3CCN(c4ccc(F)cc4)CC3)ccc21 19.5%
COc1ccc(C)cc1-n1nnnc1SCc1nc2ccccc2c(=O)[nH]1 24.3%
CC(NCC(O)COc1ccccc1)C1COc2ccccc2O1 (centres undefined) -15.7%
CCN(c1ccccc1)S(=O)(=O)c1ccc(F)c(C(=O)O)c1 -138%
COc1cc(CNc2ccc3c(c2)OCCO3)ccc1OCC(N)=O -15.5%
CC(=O)c1cccc(NC(=O)CN2CCc3cc4c(cc3C2C)OCCCO4)c1 (centres undefined) 24.4%
CSc1ccccc1NC(=O)c1ccco1 -11%
CC(=O)Nc1ccc(S(=O)(=O)NCCCN2CCOCC2)cc1 -176%
CC(=O)c1cccc(NC(=O)CSc2nnc(C(C)N(C)C)n2-c2ccc(F)cc2)c1 (centres undefined) 3.76%
CC(C)c1ccc(NC(=O)C2CC(=O)Nc3nc4ccccc4n32)cc1 (centres undefined) -20.7%
O=C(Cc1ccc(-n2cnnn2)cc1)NC12CC3CC(CC(C3)C1)C2 28.3%
Cc1ccc(S(=O)(=O)N2CCN(C(=O)CCCOc3ccc(Cl)cc3C)CC2)cc1
CCCOC(=O)CSC1=C(C#N)C(c2ccccc2Cl)CC(=O)N1 (centres undefined) 85.5%
Cc1ccc(N(CC(O)CN2CCOCC2)S(=O)(=O)c2ccc([N+](=O)[O-])cc2)cc1 (centres undefined) -18.9%
CSc1ccccc1Sc1cc(C(=O)O)c2ccccc2n1 15%
Cc1ccc(N(C(=O)c2csnn2)C(C(=O)NCc2ccccc2)c2ccccn2)cc1 (centres undefined) 3.88%
O=C(Nc1ccc(Br)c(C(F)(F)F)c1)c1ccccc1 1.97%
CCOC(=O)c1c(NC(=O)CSc2nc3ccccc3o2)sc(C)c1C -52.1%
Clc1ccc(/C=N/Nc2ncnc3ccccc23)cc1Cl -47%
N#Cc1ccccc1S(=O)(=O)N1CCN(C(=O)CCC2CCCC2)CC1 -16.3%
Cc1cn[nH]c1 -17.9%
CC(OC(=O)Cc1ccsc1)C(=O)Nc1ccc(Cl)cn1 (centres undefined) 40.3%
Cc1ccc(C(=O)CCS(=O)(=O)c2ccc(Cl)cc2)cc1 -25.6%
CCOc1cc(/C=N/NS(=O)(=O)c2ccc(OC)cc2)ccc1OCCN1CCOCC1 41.5%
COc1cc2ccccc2cc1C(=O)NC1CCCCC1 28.8%
Cc1ccccc1NC(=S)N(CCN1CCOCC1)Cc1ccccc1F -18.3%
Cc1cc(C)c(C(=O)/C=C/c2cccs2)c(=O)[nH]1 53.7%
COc1ccccc1CN1CCCC(CN(CCN(C)C)C(=O)c2ccc(C)cc2)C1 (centres undefined) 10.6%
c1ccc(-c2nc(NCCCN3CCOCC3)c3ccccc3n2)cc1 61.3%
Cc1ccc(-c2nc3cccnc3s2)cc1NC(=O)C1c2ccccc2Oc2ccccc21 -0.511%
CCC1(c2ccccc2)NC(=O)N(CC(=O)Nc2cc(S(=O)(=O)N3CCCCC3)ccc2N(C)C)C1=O (centres undefined)
O=C(O)c1cc2ncc(CCO)cn2n1 4.47%

Pulled by structure from the entries so far:
Lipid storage change, negative = inhibition, inconclusive:
O=C(CCCSc1nc2ccccc2[nH]1)NCc1ccccc1Cl -47.8%
CC(NCC(O)COc1ccccc1)C1COc2ccccc2O1 (centres undefined) -15.7%
CC(=O)c1cccc(NC(=O)CSc2nnc(C(C)N(C)C)n2-c2ccc(F)cc2)c1 (centres undefined) 3.76%
CCOc1cc(/C=N/NS(=O)(=O)c2ccc(OC)cc2)ccc1OCCN1CCOCC1 41.5%
CCOc1ccc(OCC)c(S(=O)(=O)NCc2ccc3c(c2)OCO3)c1 6.3%

Following part:

Lipid storage change, negative = inhibition, inactive:
O=C(CN1C(=O)NC2(CCCC2)C1=O)Nc1ccccc1-c1ccccc1 7.06%
O=C(COC(=O)CC12CC3CC(CC(Br)(C3)C1)C2)NC(=O)NCc1ccco1 -0.115%

outcome, inactive:
CCOC(=O)CSc1[nH]c(=O)cc(C)c1C#N inactive [at 46.1 µM]
